Our source for the binding values is publication PMC11233670.

The chains behind the UniProt entries cited, without tags or fusion partners.
UniProt P02730: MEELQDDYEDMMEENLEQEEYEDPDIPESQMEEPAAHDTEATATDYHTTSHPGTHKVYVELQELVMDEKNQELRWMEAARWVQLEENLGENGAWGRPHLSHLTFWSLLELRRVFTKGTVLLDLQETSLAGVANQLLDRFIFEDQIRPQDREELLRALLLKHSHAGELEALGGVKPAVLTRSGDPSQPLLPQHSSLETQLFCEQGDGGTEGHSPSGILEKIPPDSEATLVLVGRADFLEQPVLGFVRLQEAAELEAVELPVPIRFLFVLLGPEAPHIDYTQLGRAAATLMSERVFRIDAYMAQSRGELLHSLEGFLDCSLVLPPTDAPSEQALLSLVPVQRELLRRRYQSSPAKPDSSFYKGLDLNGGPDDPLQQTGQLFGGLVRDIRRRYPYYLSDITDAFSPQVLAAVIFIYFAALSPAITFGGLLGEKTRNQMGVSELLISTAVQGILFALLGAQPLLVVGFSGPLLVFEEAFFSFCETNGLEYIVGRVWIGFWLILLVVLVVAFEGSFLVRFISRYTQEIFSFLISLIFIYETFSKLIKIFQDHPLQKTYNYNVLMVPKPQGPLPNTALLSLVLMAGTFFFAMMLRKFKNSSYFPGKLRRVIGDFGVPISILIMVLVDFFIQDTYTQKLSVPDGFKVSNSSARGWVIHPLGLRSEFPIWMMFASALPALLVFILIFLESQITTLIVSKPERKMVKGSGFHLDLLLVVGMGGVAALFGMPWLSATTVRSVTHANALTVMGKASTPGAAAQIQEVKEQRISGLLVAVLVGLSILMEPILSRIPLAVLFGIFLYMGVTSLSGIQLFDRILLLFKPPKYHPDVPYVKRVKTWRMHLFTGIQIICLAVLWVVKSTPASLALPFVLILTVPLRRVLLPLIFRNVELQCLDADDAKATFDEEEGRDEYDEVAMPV

No constants are given. Whether binding was seen depends on the method and setting. In cells and extracts the contact can be indirect. Some results given as binding are weak or reduced against the parent protein; the word gives no strength.

This assay concerns the target Band 3 (human (endogenous in RBCs)) (UniProt P02730). As to the kind of experiment: proximity ligation.

B1: Toll-like receptor 7 (TLR7) (receptor, UniProt Q9NYK1 27-1049)
chain: ARWFPKTLPCDVTLDVPKNHVIVDCTDKHLTEIPGGIPTNTTNLTLTINHIPDISPASFHRLDHLVEIDFRCNCVPIPLGSKNNMCIKRLQIKPRSFSGLTYLKSLYLDGNQLLEIPQGLPPSLQLLSLEANNIFSIRKENLTELANIEILYLGQNCYYRNPCYVSYSIEKDAFLNLTKLKVLSLKDNNVTAVPTVLPSTLTELYLYNNMIAKIQEDDFNNLNQLQILDLSGNCPRCYNAPFPCAPCKNNSPLQIPVNAFDALTELKVLRLHSNSLQHVPPRWFKNINKLQELDLSQNFLAKEIGDAKFLHFLPSLIQLDLSFNFELQVYRASMNLSQAFSSLKSLKILRIRGYVFKELKSFNLSPLHNLQNLEVLDLGTNFIKIANLSMFKQFKRLKVIDLSVNKISPSGDSSEVGFCSNARTSVESYEPQVLEQLHYFRYDKYARSCRFKNKEASFMSVNESCYKYGQTLDLSKNSIFFVKSSDFQHLSFLKCLNLSGNLISQTLNGSEFQPLAELRYLDFSNNRLDLLHSTAFEELHKLEVLDISSNSHYFQSEGITHMLNFTKNLKVLQKLMMNDNDISSSTSRTMESESLRTLEFRGNHLDVLWREGDNRYLQLFKNLLKLEELDISKNSLSFLPSGVFDGMPPNLKNLSLAKNGLKSFSWKKLQCLKNLETLDLSHNQLTTVPERLSNCSRSLKNLILKNNQIRSLTKYFLQDAFQLRYLDLSSNKIQMIQKTSFPENVLNNLKMLLLHHNRFLCTCDAVWFVWWVNHTEVTIPYLATDVTCVGPGAHKGQSVISLDLYTCELDLTNLILFSLSISVSLFLMVMMTASHLYFWDVWYIYHFCKAKIKGYQRLISPDCCYDAFIVYDTKDPAVTEWVLAELVAKLEDPREKHFNLCLEERDWLPGQPVLENLSQSIQLSKKTVFVMTDKYAKTENFKIAFYLSHQRLMDEKVDVIILIFLEKPFQKSKFLQLRKRLCGSSVLEWPTNPQAHPYFWQCLKNALATDNHVAYSQVFKETV
Consider B1, for which the binding entry is given as “binds”.
